Measurements from paper PMC4444253.

The chains behind the UniProt entries cited, without tags or fusion partners. Where a name states a change or a piece, a line headed by the entry shows the natural chain unless it says otherwise.
UniProt P50591: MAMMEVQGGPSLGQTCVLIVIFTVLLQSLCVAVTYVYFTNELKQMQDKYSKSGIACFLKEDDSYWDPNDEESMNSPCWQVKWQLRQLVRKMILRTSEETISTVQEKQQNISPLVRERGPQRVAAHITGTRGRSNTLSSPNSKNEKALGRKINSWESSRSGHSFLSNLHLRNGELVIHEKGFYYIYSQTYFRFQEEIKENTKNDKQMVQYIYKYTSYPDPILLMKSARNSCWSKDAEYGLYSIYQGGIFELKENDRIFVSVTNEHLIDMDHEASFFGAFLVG
UniProt Q14790: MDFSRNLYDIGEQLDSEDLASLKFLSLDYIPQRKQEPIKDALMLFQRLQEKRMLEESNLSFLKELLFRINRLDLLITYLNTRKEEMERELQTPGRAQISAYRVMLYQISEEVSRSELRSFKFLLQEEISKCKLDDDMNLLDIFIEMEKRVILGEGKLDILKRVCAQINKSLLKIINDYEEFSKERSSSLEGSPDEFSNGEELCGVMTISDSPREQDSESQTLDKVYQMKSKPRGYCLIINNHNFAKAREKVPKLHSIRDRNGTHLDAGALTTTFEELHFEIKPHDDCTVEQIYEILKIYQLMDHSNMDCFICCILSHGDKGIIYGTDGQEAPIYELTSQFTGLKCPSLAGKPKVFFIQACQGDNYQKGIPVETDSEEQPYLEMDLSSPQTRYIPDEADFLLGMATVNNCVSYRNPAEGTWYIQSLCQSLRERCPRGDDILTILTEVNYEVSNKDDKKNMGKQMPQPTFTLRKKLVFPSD
UniProt Q13158: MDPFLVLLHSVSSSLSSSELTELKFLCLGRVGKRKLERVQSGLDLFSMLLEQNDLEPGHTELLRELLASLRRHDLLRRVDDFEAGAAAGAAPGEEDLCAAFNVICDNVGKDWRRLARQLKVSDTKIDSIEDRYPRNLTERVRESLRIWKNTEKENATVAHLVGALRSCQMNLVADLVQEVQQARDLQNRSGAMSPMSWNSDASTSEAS
UniProt P15311: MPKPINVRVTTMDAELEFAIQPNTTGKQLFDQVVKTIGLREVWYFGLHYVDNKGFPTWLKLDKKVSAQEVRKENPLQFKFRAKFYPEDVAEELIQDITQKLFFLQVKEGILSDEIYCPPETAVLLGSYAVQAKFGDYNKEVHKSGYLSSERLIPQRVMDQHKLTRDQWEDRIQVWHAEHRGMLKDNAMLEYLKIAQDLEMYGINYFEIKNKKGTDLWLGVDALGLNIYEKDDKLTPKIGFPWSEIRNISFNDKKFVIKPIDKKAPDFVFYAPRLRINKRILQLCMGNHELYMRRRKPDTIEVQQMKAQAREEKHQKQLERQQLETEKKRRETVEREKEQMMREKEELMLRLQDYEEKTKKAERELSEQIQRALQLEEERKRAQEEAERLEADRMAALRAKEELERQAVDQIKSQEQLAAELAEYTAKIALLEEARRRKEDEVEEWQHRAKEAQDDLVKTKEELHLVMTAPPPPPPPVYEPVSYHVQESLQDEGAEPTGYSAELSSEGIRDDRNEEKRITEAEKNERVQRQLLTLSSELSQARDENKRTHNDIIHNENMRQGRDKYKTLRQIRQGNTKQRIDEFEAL

Target: Flag-tagged recombinant soluble human TRAIL (human) (UniProt P50591)
Experiment: co-IP; TRAIL DISC analysis: 10^8 HCT116 or SW480 cells stimulated at 37°C with Flag-TRAIL cross-linked with anti-Flag M2, lysed in 1% NP40, 20 mM Tris-HCl pH 7.5, 150 mM NaCl, 10% glycerol; precipitated overnight at 4°C with protein G-Sepharose; western blot; also done in SW480 cells expressing ezrin WT, S66A or S66D; only the target purified

Row | binding | Molecule
1 | binds | caspase-8 (from UniProt Q14790 1-479) (enzyme)
2 | binds | adaptor protein FADD (from UniProt Q13158 1-208)
3 | binds | caspase-10 (enzyme, UniProt Q92851 1-521) MKSQGQHWYSSSDKNCKVSFREKLLIIDSNLGVQDVENLKFLCIGLVPNKKLEKSSSASDVFEHLLAEDLLSEEDPFFLAELLYIIRQKKLLQHLNCTKEEVERLLPTRQRVSLFRNLLYELSEGIDSENLKDMIFLLKDSLPKTEMTSLSFLAFLEKQGKIDEDNLTCLEDLCKTVVPKLLRNIEKYKREKAIQIVTPPVDKEAESYQGEEELVSQTDVKTFLEALPQESWQNKHAGSNGNRATNGAPSLVSRGMQGASANTLNSETSTKRAAVYRMNRNHRGLCVIVNNHSFTSLKDRQGTHKDAEILSHVFQWLGFTVHIHNNVTKVEMEMVLQKQKCNPAHADGDCFVFCILTHGRFGAVYSSDEALIPIREIMSHFTALQCPRLAEKPKLFFIQACQGEEIQPSVSIEADALNPEQAPTSLQDSIPAEADFLLGLATVPGYVSFRHVEEGSWYIQSLCNHLKKLVPRMLKFLEKTMEIRGRKRTVWGAKQISATSLPTAISAQTPRPPMRRWSSVS

Row | Molecule | binding
4 | ezrin (from UniProt P15311 1-586) | no binding

No constants are given. Whether binding was seen depends on the method and setting. In cells and extracts the contact can be indirect. Binding calls can cover weak binding; strength is not graded here.
